Among the data in PubChem BioAssay AID2685 (National Center for Advancing Translational Sciences (NCATS), 2010) are cell number change and AC50 values, retold here.

Some of the results follow. These are further read-outs of the screen, such as a control signal, another cell line or another target. No call is given for them. Most of these compounds were active or inconclusive in the main read-out, so they are no random draw. Words in brackets tell the shape of the fitted curve; partial curves, single points and poor fits give uncertain potencies.

A short description of the assay: qHTS Assay for Lipid Storage Modulators in Drosophila S3 Cells.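 For cell number change: cells counted by Cell Tracker Red CMTPX staining in the red channel.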 The note with it: BODIPY lipid droplet fluorescence, 18-24 h; for cell number change: measured here: cell count max response, cells fed with added oleic acid. An outline of the steps:
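Drosophila S3 cells loaded with oleic acid (400 uM, as added) and compounds at several concentrations; lipid droplets imaged by 488-nm laser-scanning cytometry, 500–530 nm intensity and object ratio to cell channel. Percent activity normalized to 20 uM Triacsin C.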
(Quantitative high-throughput screening tests each substance at several concentrations.)

The mark [1] stands for this setting: measured here: lipid fluorescence (Fed channel) AC50, cells fed with added oleic acid.
The mark [2] stands for this setting: measured here: cell number channel AC50, cells fed with added oleic acid.

By AC50 is commonly meant the midpoint of the concentration-response curve, whichever way the signal moves.

Turning to `Cn1c(=O)[nH]c(=O)c2c1nc1n2CCCN1CCc1ccccc1`, the cell number change stood at 8.43%. For the same molecule, under setting [1], the AC50 was 2.31 µM [rising, full curve].

Consider `Cc1[nH]n(C(N)=S)c(=O)c1N=Nc1ccc2ccccc2c1`, for which the cell number change was -41.8%. Also, under setting [2], the AC50 is 2.31 µM [rising, partial curve].

For `COc1ccc(C2SCC(=O)N2C)cc1` (centres undefined), the cell number change was -46.3%. The AC50 under setting [2] was 6.51 µM [falling, full curve]. For the same molecule, the AC50 under setting [1] is 6.51 µM [falling, partial curve].

Consider `CC1CCCN(S(=O)(=O)c2cccc([N+](=O)[O-])c2)C1` (centres undefined), for which the cell number change is 17.9%. Moreover, under setting [1], the AC50 was 0.731 µM [falling, single point].

`CSc1ccccc1NC(=O)c1ccoc1C`: the cell number change is 29.9%. Moreover, the AC50 under setting [1] is 20.6 µM [rising, single point].

Consider `Cc1nc2ccccc2c2oc(C(=O)N3CCc4ccccc4C3)cc12`, for which the cell number change is 49%. Under setting [2], the AC50 is 0.517 µM [rising, full curve]. For the same molecule, under setting [1], the AC50 is 1.3 µM [rising, full curve].

Turning to `O=C(O)c1ccc(CSC2CCCCC2)cc1`, the cell number change stood at 56.3%. For the same molecule, the AC50 under setting [2] is 16.4 µM [rising, partial curve, poor fit]. The AC50 under setting [1] was 14.6 µM [rising, partial curve].

Consider `Cc1ccccc1C(=O)N1CCC(C(=O)Nc2cccc(F)c2)CC1`, for which the cell number change was -11.3%.

On to `CC(=O)c1ccc(OCCCC(=O)NCc2nnc3ccccn23)cc1`, for which the cell number change came out at 0.549%. Moreover, the AC50 under setting [1] is 3.26 µM [rising, single point].

Consider `C/C=C/c1ccc(OCCOCCOc2cccc3cccnc23)c(OC)c1`, for which the cell number change came out at 56.8%. Moreover, under setting [2], the AC50 is 0.651 µM [rising, full curve]. Besides, the AC50 under setting [1] is 0.651 µM [rising, partial curve, poor fit].

On to `O=C(CC1SC(=NCCc2ccccc2)N(/N=C/c2cccs2)C1=O)Nc1ccc(Cl)cc1` (centres undefined), for which the cell number change is -1.6%. Also, under setting [1], the AC50 was 32.6 µM [falling, single point].

As to `O=C(Oc1ccc(Br)cc1)c1cccc(S(=O)(=O)N2CCOCC2)c1`, the cell number change was -23.8%. The AC50 under setting [1] is 29.1 µM [falling, single point].

`COc1cccc(C(=O)CN2C(=O)C(C)(C)Oc3ccc(C(=O)N4CCOCC4)cc32)c1`: the cell number change was -13.9%. Also, the AC50 under setting [1] is 29.1 µM [falling, single point].

For the molecule `O=C(O)CC(NS(=O)(=O)c1ccc(Br)cc1)c1ccco1` (centres undefined), the cell number change was -6.46%. Further, under setting [1], the AC50 was 32.6 µM [falling, partial curve].

For the molecule `O=C(O)c1c(Cl)c(Cl)c(Cl)c(Cl)c1C(=O)N1CCCCCC1`, the cell number change is -11.8%.

On to `O=[N+]([O-])c1ccccc1N/N=C\c1ccccc1Cl`, for which the cell number change was -21.2%. Moreover, under setting [1], the AC50 is 20.6 µM [falling, single point].

Regarding `COc1ccccc1N1CCN(S(=O)(=O)CCNC(=O)c2cc(=O)c3ccccc3o2)CC1`, the cell number change came out at 4.96%. Further, under setting [1], the AC50 is 6.51 µM [falling, single point].

Consider `O=C(CSc1nnc(NC(=O)c2ccco2)s1)Nc1ccccc1F`, for which the AC50 under setting [1] was 0.164 µM [rising, full curve, poor fit].

On to `CC(C(=O)NCC1CCCO1)n1cccc1C(=O)c1ccccc1` (centres undefined), for which the cell number change was -22%. Besides, the half-maximal activity concentration (AC50) under setting [1] was 0.206 µM [falling, full curve, poor fit].

For `C/C(=N\NS(=O)(=O)c1ccc(Br)cc1)c1ccc(-n2ccnc2)cc1`, the cell number change was -6.64%. Moreover, the AC50 under setting [1] is 0.00461 µM [falling, full curve, poor fit].

As for `COc1ccc(-c2nnc(SCC(=O)Nc3sc4c(c3C#N)CCCC4)n2-c2ccccc2)cc1`, the cell number change came to 13.4%. Besides, the AC50 under setting [1] is 2.59 µM [rising, full curve, poor fit].

For `Cc1ccc2sc(N(CCCN(C)C)C(=O)CCS(=O)(=O)c3ccccc3)nc2c1C`, the cell number change was -16.4%. Also, the AC50 under setting [1] is 29.1 µM [falling, single point].

`Cc1sc(NC(=S)NC(=O)CCc2ccccc2)c(C(N)=O)c1C`: the cell number change was determined as 66.7%. Under setting [2], the AC50 was 29.1 µM [rising, partial curve, poor fit].

On to `CNC(=O)c1c(NC(=O)CS(=O)(=O)c2ccccc2)sc(C)c1C`, for which, under setting [1], the AC50 is 4.11 µM [rising, full curve].

For the molecule `COc1ccccc1N1CCN(C(=O)CSc2nc(C)c(Cc3ccccc3)c(=O)[nH]2)CC1`, the cell number change is -13.3%.

Consider `CCSC(=O)N(CC)CC(=O)Nc1c(CC)cccc1CC`, for which the cell number change was -13.3%. The AC50 under setting [1] was 32.6 µM [falling, partial curve, poor fit].

On to `Cc1ccc(/C=N\NC(=O)c2cc([N+](=O)[O-])cc([N+](=O)[O-])c2)o1`, for which the cell number change was -14%. Besides, the half-maximal activity concentration (AC50) under setting [1] is 0.146 µM [falling, full curve, poor fit].

With `CCCN(CCC)c1ccc(C(O)c2nnc(-c3ccccc3)o2)cc1` (centres undefined), the cell number change is -54%. The AC50 under setting [2] was 11.6 µM [falling, partial curve, poor fit].

Take `Cc1ccccc1NC(=O)c1cc(N)ccc1N1CCCCC1`: the AC50 under setting [2] is 0.326 µM [rising, single point].

Take `COc1ccc(-c2csc3ncnc(N4CCN(CCO)CC4)c23)cc1`: the cell number change was -42.3%. For the same molecule, the AC50 under setting [2] was 0.731 µM [falling, full curve].

`O=C(NCc1ccco1)c1nc2c(nnn2Cc2cccc(Cl)c2)c(=O)[nH]1`: the cell number change was 1.03%. Further, under setting [1], the AC50 is 14.6 µM [rising, single point].

Take `COc1ccc(NC(=S)NC(C)Cc2cccs2)cc1` (centres undefined): the cell number change was found to be 12.6%.

Consider `Cc1ccccc1NC(=S)N(C)Cc1cn(C)c2ccccc12`, for which, under setting [1], the AC50 was 29.1 µM [falling, single point].

With `CCc1ccc(Nc2n[n+](-c3ccccc3)c(-c3cccc(C)c3)s2)cc1`, the cell number change is -29.2%.

For `CN1CCN(CCCNC(=O)c2ccc3c(Cl)c4c(nc3c2)CCCC4)CC1`, the cell number change came to 10.4%. In addition, under setting [1], the AC50 was 0.164 µM [rising, full curve, poor fit].

Consider `O=C(N/N=C\c1ccc(Cl)cc1)c1sccc1-n1cccc1`, for which the cell number change is -30.1%. Also, the half-maximal activity concentration (AC50) under setting [2] was 32.6 µM [falling, single point].

In the case of `Cc1ccc(C(=O)COC(=O)CN2C(=O)C3C4CCC(C4)C3C2=O)cc1C` (centres undefined), the cell number change was -19.9%.

Consider `Cc1cc(=O)nc2c3ccccc3n(C(C)C(=O)Nc3c(F)c(F)c(F)c(F)c3F)n12` (centres undefined), for which the cell number change was determined as 12.4%.

Take `COC(=O)c1cccc(S(=O)(=O)N2CCOCC2)c1`: the cell number change was -66.4%. The AC50 under setting [2] was 16.4 µM [falling, partial curve]. For the same molecule, the AC50 under setting [1] was 4.11 µM [falling, full curve].

As for `COc1cccc(CN(C)CC(=O)NCc2ccccc2Cl)c1`, the cell number change is -3.54%. For the same molecule, the AC50 under setting [1] was 29.1 µM [falling, single point].

Regarding `COc1ccc(S(=O)(=O)N2CCCCC2)cc1NC(=O)CCCOc1ccccc1`, the cell number change was -0.342%. Moreover, the AC50 under setting [1] was 0.0517 µM [falling, full curve, poor fit].

Turning to `O=C(C1=C[C@@H](c2coc3ccccc3c2=O)C[C@@H](OCCCCO)O1)N1CCOCC1`, the cell number change was 34.1%.

Turning to `OCC[C@@H]1C[C@@H](O)[C@H](O)[C@]2(OCCCc3ccccc32)O1`, the cell number change is 24.6%. Moreover, the AC50 under setting [1] is 0.146 µM [falling, full curve, poor fit].

As for `COc1ccc(CCNc2nc(-c3sc(N)nc3C)cs2)cc1OC`, the cell number change was -6.71%. The AC50 under setting [1] was 2.91 µM [rising, partial curve].

As for `COc1cccc(/C=C/C(=O)OCC(=O)N2CCN(S(=O)(=O)c3ccc(Cl)cc3)CC2)c1`, the cell number change worked out at 10.2%. Under setting [1], the AC50 was 1.46 µM [rising, full curve, poor fit].

`Cc1ccc(NC(=O)C2CCN(S(=O)(=O)c3c(C)noc3/C=C/c3ccco3)CC2)nc1`: the cell number change was found to be 2.11%. Also, the AC50 under setting [1] is 16.4 µM [rising, single point].

`O=C(CSc1nnnn1-c1ccc2c(c1)CCC2)Nc1ccc2c(c1)OCCO2`: the cell number change was -37.8%. The AC50 under setting [2] is 16.4 µM [falling, single point].

On to `CCOC(=O)COc1ccccc1/C=N/O`, for which the cell number change was -12.5%. Further, the AC50 under setting [1] was 32.6 µM [falling, single point].

Take `O=C1OC(COc2ccc(Br)cc2)CN1c1ccccc1` (centres undefined): the cell number change stood at 2.18%. Besides, the AC50 under setting [1] is 0.116 µM [rising, full curve, poor fit].

With `Cc1cc(C(=O)Nc2cc(C(F)(F)F)ccc2N2CCOCC2)no1`, the AC50 under setting [1] was 0.58 µM [rising, single point].

Turning to `O=C(O)c1ccc2c3n(nc2c1)-c1ccc(Cl)cc1CO3`, the cell number change was found to be 19.8%.

Take `O=C(Nc1ccc(Cl)cc1)[C@@H]1[C@@H]2C(=O)N(c3ccc4ccccc4c3)C(=O)[C@@H]2[C@H]2C=CC=NN21`: the cell number change turned out to be 50.3%. In addition, the AC50 under setting [2] is 29.1 µM [rising, single point]. The AC50 under setting [1] is 6.51 µM [falling, single point].

As to `C=CCn1c(SCC(=O)c2c(N)n(C3CC3)c(=O)[nH]c2=O)nnc1-c1ccccc1OC`, the cell number change was -37.4%. Further, the AC50 under setting [2] was 2.06 µM [falling, single point].

As to `CCNc1ccc(S(=O)(=O)N(C)C)cc1NCC(=O)Nc1ccccc1F`, the cell number change was found to be 34.9%. For the same molecule, the AC50 under setting [2] was 9.2 µM [rising, partial curve]. Moreover, the AC50 under setting [1] was 6.51 µM [rising, single point].

For `Cc1nc2c3cc(Cl)ccc3n(CCN3CCOCC3)c2s1`, the cell number change is -25%. The AC50 under setting [1] was 1.46 µM [rising, full curve, poor fit].

For `NC(=O)c1ccc(NC(=O)CCc2nc3sc4c(c3c(=O)[nH]2)CCCC4)cc1`, the cell number change worked out at 15.6%. Further, the AC50 under setting [1] was 29.1 µM [falling, single point].

As to `CC(C(=O)Nc1ncc([N+](=O)[O-])s1)N1C(=O)c2ccccc2S1(=O)=O` (centres undefined), the cell number change is -8.82%. Besides, under setting [1], the AC50 was 23.1 µM [falling, partial curve].

Take `Cc1ccc(C2CC(C(F)(F)F)n3nc(C(=O)Nc4c(C)n(C)n(-c5ccccc5)c4=O)cc3N2)cc1` (centres undefined): the cell number change worked out at 36.4%. Besides, under setting [2], the AC50 was 4.61 µM [rising, full curve].

As for `CCOC(=O)N1CCN(C(=O)COC(=O)C2CCN(S(=O)(=O)c3c(Cl)cccc3Cl)CC2)CC1`, the cell number change is -25.2%. For the same molecule, the AC50 under setting [2] is 0.651 µM [falling, full curve, poor fit]. For the same molecule, the AC50 under setting [1] is 29.1 µM [falling, single point].

Turning to `CCCN1CCN(CCCNC(=O)C(CC)n2nc(C)c3sc4ccccc4c3c2=O)CC1` (centres undefined), the cell number change is -0.885%. Further, the AC50 under setting [1] is 29.1 µM [rising, single point].
